Reference: PubChem BioAssay AID248 (DTP/NCI, 2004)
The list does not hold the whole screen: it is rich in T/C values a quarter to a half above the control, in often repeated tests (any T/C) and in doses without a T/C. Other doses and runs of a compound stand elsewhere. T/C is the treated group as % of the vehicle group. Some entries give survivors of the animals treated and no T/C: the source files T/C as zero there, which appears to mark a toxic dose or a test without result, not a measured value. Some survivor counts are full or nearly so, which does not show that the dose was tolerated: the source hardly ever lists a survival T/C far under the control, and the zero likely stands for such cases as well. Survivors were counted at the toxicity check, usually on the fifth day, unless a day is given; later deaths do not show. Schedule codes are those of the source, taken here to give the interval after Q, in days (D) or hours (H), and the number of doses after X. Some schedules carry Z or #; the key to these is not given. Some entries hold several experiments; their values stand side by side, smallest first. For survival time, the PubChem record calls one and a half times the control and up active, and a quarter to a half above the control has no call in these data; cut-offs in other NCI protocols can differ. Some T/C values carry the count of animals alive at the toxicity check (mostly the fifth day); without a count, all were alive then.

System: L1210 leukemia ip in BDF1 mice, survival T/C
Experiment: NCI In Vivo Anticancer Drug Screen. Data for tumor model L1210 Leukemia (intraperitoneal) in B6D2F1 (BDF1) mice
Conditions: T/C endpoint: mean survival time, higher T/C = longer survival
[1] = dose: 200.0 mg/kg/injection, schedule: Q04DX003 (ip), vehicle: saline with Tween-80
[2] = dose: 400.0 mg/kg/injection, schedule: Q04DX003 (ip), vehicle: saline with Tween-80
[3] = dose: 100.0 mg/kg/injection, schedule: Q01DX009 (ip), vehicle: Klucel (hydroxypropylcellulose) (HPC)
[4] = dose: 200.0 mg/kg/injection, schedule: Q04DX003 (ip), vehicle: Klucel (hydroxypropylcellulose) (HPC)
[5] = dose: 400.0 mg/kg/injection, schedule: Q04DX003 (ip), vehicle: Klucel (hydroxypropylcellulose) (HPC)
[6] = dose: 400.0 mg/kg/injection, schedule: Q01DX009 (ip), vehicle: Klucel (hydroxypropylcellulose) (HPC)
[7] = dose: 200.0 mg/kg/injection, schedule: Q01DX001 (ip), vehicle: carboxymethylcellulose (CMC)
[8] = dose: 400.0 mg/kg/injection, schedule: Q01DX001 (ip), vehicle: carboxymethylcellulose (CMC)
[9] = dose: 400.0 mg/kg/injection, schedule: Q01DX001 (ip), vehicle: saline
[10] = dose: 200.0 mg/kg/injection, schedule: Q01DX009 (ip), vehicle: saline with Tween-80
[11] = dose: 150.0 mg/kg/injection, schedule: Q01DX001 (ip), vehicle: saline
[12] = dose: 300.0 mg/kg/injection, schedule: Q01DX001 (ip), vehicle: saline
[13] = dose: 300.0 mg/kg/injection, schedule: Q01DX001 (ip), vehicle: carboxymethylcellulose (CMC)
[14] = dose: 200.0 mg/kg/injection, schedule: Q01DX009 (ip), vehicle: Klucel (hydroxypropylcellulose) (HPC)
[15] = dose: 200.0 mg/kg/injection, schedule: Q01DX009 (ip), vehicle: water
[16] = dose: 400.0 mg/kg/injection, schedule: Q04DX003 (ip), vehicle: saline
[17] = dose: 200.0 mg/kg/injection, schedule: Q01DX009 (ip), vehicle: saline

Structure (SMILES): CC(C)C(C#N)(CCCCN1CCCC1)c1cccc2ccccc12 (centres undefined)
- survivor count [1]: 4 of 6
- survivor count [2]: 0 of 6

Structure (SMILES): CCCCOC(=O)CNC(=O)c1ccc([N+](=O)[O-])s1
- survivor count (dose: 200.0 mg/kg/injection, schedule: Q01DX005 (ip), vehicle: saline): 2 of 4

Structure (SMILES): Clc1c(CI)ccc(CI)c1Cl
- survivor count [3]: 0 of 6
- survivor count [4]: 4 of 6
- survivor count [5]: 1 of 6

Structure (SMILES): CCCCCCCN(CCCCCCC)CC(O)c1c2ccccc2cc2c1ccc1ccccc12 (centres undefined)
- survivor count [6]: 6 of 6

Structure (SMILES): O=C(O)/C(F)=C/c1ccccc1
- survivor count [7]: 0 of 4
- survivor count [8]: 0 of 4

Structure (SMILES): O=C1N(C[P+](c2ccccc2)(c2ccccc2)c2ccccc2)CCCN1C[P+](c1ccccc1)(c1ccccc1)c1ccccc1
- survivor count (dose: 12.5 mg/kg/injection, schedule: Q01DX005 (ip), vehicle: saline): 0 of 3
- survivor count (dose: 100.0 mg/kg/injection, schedule: Q04DX002 (ip), vehicle: saline): 3 of 3
- survivor count (dose: 200.0 mg/kg/injection, schedule: Q04DX002 (ip), vehicle: saline): 0 of 3
- survivor count (dose: 400.0 mg/kg/injection, schedule: Q04DX002 (ip), vehicle: saline): 0 of 3

Structure (SMILES): Cc1c2c(nn1-c1ccccn1)C(=O)C=C(Nc1ccccc1)C2=O
- survivor count (dose: 100.0 mg/kg/injection, schedule: Q04DX002 (ip), vehicle: Klucel (hydroxypropylcellulose) (HPC)): 3 of 3
- survivor count (dose: 200.0 mg/kg/injection, schedule: Q04DX002 (ip), vehicle: Klucel (hydroxypropylcellulose) (HPC)): 3 of 3

Structure (SMILES): CCCCOC(=O)C#CC(=O)OCCCC
- survivor count (dose: 25.0 mg/kg/injection, schedule: Q01DX009 (ip), vehicle: carboxymethylcellulose (CMC)): 5 of 6
- survivor count (dose: 50.0 mg/kg/injection, schedule: Q04DX002 (ip), vehicle: carboxymethylcellulose (CMC)): 6 of 6

Structure (SMILES): Nc1cc(Cl)cc2c1-c1c(Cl)cc(Cl)cc1C2=O
- survivor count [6]: 3 of 6
- survivor count [5]: 1 of 6

Structure (SMILES): Cc1ccc2nc(CCl)[nH]c2c1
- survivor count [9]: 0 of 4

Structure (SMILES): N=C(CCCc1ccccc1)SCc1ccccc1
- survivor count [10]: 0 of 6
- survivor count [1]: 5 of 6
- survivor count (dose: 400.0 mg/kg/injection, schedule: Q01DX001 (ip), vehicle: saline with Tween-80): 1 of 6

Structure (SMILES): CCc1ccc(NC(=O)N(CCCl)N=O)cc1
- T/C (dose: 5.0 mg/kg/injection, schedule: Q01DX009 (ip), vehicle: Klucel (hydroxypropylcellulose) (HPC)): 141 % of control
- T/C (dose: 12.5 mg/kg/injection, schedule: Q04DX003 (ip), vehicle: Klucel (hydroxypropylcellulose) (HPC)): 130 % of control
- T/C (dose: 25.0 mg/kg/injection, schedule: Q04DX003 (ip), vehicle: Klucel (hydroxypropylcellulose) (HPC)): 147 % of control
- T/C (dose: 40.0 mg/kg/injection, schedule: Q01DX009 (ip), vehicle: Klucel (hydroxypropylcellulose) (HPC)): 141 % of control
- survivor count (dose: 80.0 mg/kg/injection, schedule: Q01DX009 (ip), vehicle: Klucel (hydroxypropylcellulose) (HPC)): 2 of 6 and 6 of 6
- T/C (dose: 100.0 mg/kg/injection, schedule: Q04DX003 (ip), vehicle: Klucel (hydroxypropylcellulose) (HPC)): 133 and 142 % of control
- survivor count [7]: 2 of 4
- T/C [4]: 131 % of control
- survivor count [8]: 1 of 4

Structure (SMILES): Clc1ccc2c(NCCNC3CCCCC3)ccnc2c1
- survivor count (dose: 75.0 mg/kg/injection, schedule: Q01DX001 (ip), vehicle: saline): 2 of 6
- survivor count [11]: 1 of 6
- survivor count [12]: 0 of 6

Structure (SMILES): N#Cc1cnc(N)nc1N
- survivor count [13]: 3 of 6
- survivor count (dose: 300.0 mg/kg/injection, schedule: Q01DX009 (ip), vehicle: Klucel (hydroxypropylcellulose) (HPC)): 2 of 6

Structure (SMILES): CC(=O)OC1COC(NC(=O)N(CCCl)N=O)C(OC(C)=O)C1OC(C)=O (centres undefined)
- T/C (dose: 6.0 mg/kg/injection, schedule: Q01DX001 (ip), vehicle: saline with Tween-80): 146 % of control
- survivor count (dose: 45.0 mg/kg/injection, schedule: Q01DX001 (ip), vehicle: saline with Tween-80): 10 of 10
- survivor count (dose: 67.0 mg/kg/injection, schedule: Q01DX001 (ip), vehicle: saline with Tween-80): 9 of 10
- survivor count (dose: 100.0 mg/kg/injection, schedule: Q01DX001 (ip), vehicle: saline with Tween-80): 9 of 10

Structure (SMILES): O=C(CCCN1CCN(c2ccccn2)CC1)c1ccc(F)cc1
- T/C [3]: 125 % of control [4 of 6 alive]
- survivor count [14]: 0 of 6
- survivor count [5]: 2 of 4

Structure (SMILES): Cc1ccc(S(=O)(=O)OCCN(CCOS(=O)(=O)c2ccc(C)cc2)c2cc(OCc3ccccc3)cc(OCc3ccccc3)c2)cc1
- survivor count [15]: 6 of 6

Structure (SMILES): NCC(=O)Oc1c(Cl)c(Cl)c(Cl)c(Cl)c1Cl
- survivor count [11]: 0 of 6
- survivor count [12]: 0 of 6

Structure (SMILES): CC(C)/C=C/C1(C(C)C)C(=O)NC(=O)NC1=O
- survivor count [13]: 2 of 6

Structure (SMILES): c1ccc(-c2ncc3cnccn23)cc1
- survivor count (dose: 200.0 mg/kg/injection, schedule: Q04DX003 (ip), vehicle: saline): 6 of 6
- survivor count [16]: 0 of 6

Structure (SMILES): CCOC(=O)C1(C(C)C)OC2(O)C3CCCN3C(=O)C(C(C)C)N2C1=O (centres undefined)
- survivor count (dose: 132.0 mg/kg/injection, schedule: Q01DX009 (ip), vehicle: Klucel (hydroxypropylcellulose) (HPC)): 4 of 6
- survivor count (dose: 400.0 mg/kg/injection, schedule: Q01DX001 (ip), vehicle: Klucel (hydroxypropylcellulose) (HPC)): 3 of 6
- survivor count (dose: 400.0 mg/kg/injection, schedule: Q04DX003 (ip), vehicle: alcohol): 3 of 6

Structure (SMILES): NC(N)=N/C(N)=N/NC(=O)c1ccncc1
- survivor count (dose: 210.0 mg/kg/injection, schedule: Q01DX Z (ip), vehicle: methylcellulose (MC)): 5 of 6

Structure (SMILES): Clc1ccc(SCN(CSc2ccc(Cl)cc2)Cc2ccccc2)cc1
- survivor count [9]: 6 of 6

Structure (SMILES): Nc1ccc(Cc2ccc(N)c(Br)c2)cc1Br
- survivor count [17]: 5 of 6
- survivor count [9]: 0 of 6

Structure (SMILES): O=c1ccn2ccccc2n1
- survivor count [16]: 4 of 6

Structure (SMILES): Cc1n[n+]([O-])c(C)cc1[N+](=O)[O-]
- survivor count (dose: 400.0 mg/kg/injection, schedule: Q04DX002 (ip), vehicle: Klucel (hydroxypropylcellulose) (HPC)): 1 of 3

Structure (SMILES): O=C1CN(CCl)C(=O)CN1CCl
- survivor count [15]: 2 of 6
- survivor count (dose: 400.0 mg/kg/injection, schedule: Q01DX009 (ip), vehicle: water): 0 of 6

Structure (SMILES): CC(=O)NN(c1ccc([N+](=O)[O-])cc1)c1ccc([N+](=O)[O-])cc1
- survivor count [14]: 6 of 6
- survivor count [5]: 6 of 6

Structure (SMILES): CN1C(C)(C)CC(O)(C(O)(c2ccccc2)c2ccccc2)CC1(C)C
- survivor count (dose: 200.0 mg/kg/injection, schedule: Q04DX003 (ip), vehicle: acetone): 0 of 6
- survivor count (dose: 400.0 mg/kg/injection, schedule: Q04DX003 (ip), vehicle: acetone): 0 of 6

Structure (SMILES): CCCC(=O)c1cc(O)c(O)cc1O
- survivor count (dose: 100.0 mg/kg/injection, schedule: Q01DX009 (ip), vehicle: saline with Tween-80): 3 of 6
- survivor count [10]: 0 of 6
- survivor count [2]: 3 of 6

Structure (SMILES): NC(N)=Nc1ccc(C(=O)Oc2ccc([N+](=O)[O-])cc2Cl)cc1
- survivor count (dose: 100.0 mg/kg/injection, schedule: Q01DX009 (ip), vehicle: saline): 5 of 6
- survivor count [17]: 1 of 6
- survivor count (dose: 400.0 mg/kg/injection, schedule: Q01DX009 (ip), vehicle: saline): 0 of 6
- survivor count [16]: 1 of 6

Structure (SMILES): Oc1ccc(C=NCC2CCCC[N-]2)c(O)c1.Oc1ccc(C=NCC2CCCC[N-]2)c(O)c1.[Ni+2] (centres undefined)
- survivor count [2]: 6 of 6

Structure (SMILES): CCN(CC)CCOc1ccccc1C
- survivor count (dose: 160.0 mg/kg/injection, schedule: Q04DX003 (ip), vehicle: saline): 1 of 6
